Test results: US20150024388A1 (MALAYSIAN PALM OIL BOARD, published 2015)
Residue numbers refer to the chain shown, from its start.

B1: SHELL protein encoded by the Sh^DeliDura allele, yeast two-hybrid construct (amino acids 2 to 175) (other)
chain: GRGKIEIKRIENTTSRQVTFCKRRNGLLKKAYELSVLCDAEVALIVFSSRGRLYEYANNSIRSTIDRYKKACANSSNSGATIEINSQQYYQQESAKLRHQIQILQNANRHLMGEALSTLTVKELKQLENRLERGITRIRSKKHELLFAEIEYMQKREVELQNDNMYLRAKIAEN
notes: MADS-box, I and K domains; the C domain was left out; also called Sh^DURA; wild-type SHELL
B2: SHELL protein encoded by the sh^MPOB allele, yeast two-hybrid construct (amino acids 2 to 175) (other)
chain: B1 chain with L28P
notes: No position number is printed; Expressed as a pGADT7 (AD) or pGBKT7 (BD) fusion

Biological target: T1, rice OsMADS24, yeast two-hybrid construct (amino acids 2 to 177) (rice (Oryza sativa), UniProt Q9SAR1 2-177)
T1 construct: MADS-box, I and K domains; the C domain was left out; also called SEP protein family member OsMADS24; rice SEP family member
T1 sequence: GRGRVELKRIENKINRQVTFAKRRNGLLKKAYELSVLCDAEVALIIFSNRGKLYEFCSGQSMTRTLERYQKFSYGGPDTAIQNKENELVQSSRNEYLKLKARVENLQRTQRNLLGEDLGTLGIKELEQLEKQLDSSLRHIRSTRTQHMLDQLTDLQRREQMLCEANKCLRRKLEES
Experiment: yeast two-hybrid (growth on SD-Leu-Trp-His-Ade and blue colour on X-gal)
Description: FIG. 3 Depicts the results from a yeast two-hybrid assay to identify SHELL binding partners. a, Legend for plating layout. Auto-activation controls: 1, shAVROS (BD)+pGADT7; 2, shMPOB (BD)+pGADT7; 3, OsMADS24 (BD)+pGADT7; 4 ShDeliDura+pGADT7. Interaction tests: 5, shAVROS (AD)+shAVROS (BD); 6, shAVROS (AD)+shMPOB (BD); 7, shAVROS (AD)+OsMADS24 (BD); 8, OsMADS24 (AD)+shAVROS (BD); 9, shMPOB (AD)+shAVROS (BD); 10, shMPOB (AD)+shMPOB (BD); 11, shMPOB (AD)+OsMADS24 (BD); 12, OsMADS24 (AD)+shMPOB (BD); 13, shAVROS (AD)+ShDeliDura (BD); 14, shMPOB (AD)+ShDeliDura (BD); 15, ShDeliDura (AD)+ShDeliDura (BD); 16, OsMADS24 (AD)+ShDeliDura (BD); 17, ShDeliDura (AD)+shAVROS (BD); 18, ShDeliDura (AD)+shMPOB (BD); 19, ShDeliDura (AD)+OsMADS24 (BD); 20, OsMADS24 (AD)+OsMADS24 (BD); A, pGBKT7-53+pGADT7-T (positive control); B, pGBKT7-lam+pGADT7-T (negative control). Co-transformants were plated on selective media, as labeled (b-d) and on X-gal media (e). Interaction assay results are summarized in Table 1 and Supplementary Table 1. […]
Co-transformations were performed for all 16 pairwise combinations of BD and AD vectors and scored for growth on SD-Leu-Trp, SD-Leu-Trp-His, SD-Leu-Trp-His-Ade and X-gal media plates. Positive interactions were scored as blue co-tranformants (on X-gal plate) that were able to grow on SD-Leu-Trp-His-Ade selection plates (FIGS. 1 and 2).

Binder	binding result
B1	binds
B2	no binding
